The values that follow come from article PMC6656764.

Amino acid sequences for entries named in this document (tags omitted). Residues count along the entry.
UniProt P70302, residues 23-685: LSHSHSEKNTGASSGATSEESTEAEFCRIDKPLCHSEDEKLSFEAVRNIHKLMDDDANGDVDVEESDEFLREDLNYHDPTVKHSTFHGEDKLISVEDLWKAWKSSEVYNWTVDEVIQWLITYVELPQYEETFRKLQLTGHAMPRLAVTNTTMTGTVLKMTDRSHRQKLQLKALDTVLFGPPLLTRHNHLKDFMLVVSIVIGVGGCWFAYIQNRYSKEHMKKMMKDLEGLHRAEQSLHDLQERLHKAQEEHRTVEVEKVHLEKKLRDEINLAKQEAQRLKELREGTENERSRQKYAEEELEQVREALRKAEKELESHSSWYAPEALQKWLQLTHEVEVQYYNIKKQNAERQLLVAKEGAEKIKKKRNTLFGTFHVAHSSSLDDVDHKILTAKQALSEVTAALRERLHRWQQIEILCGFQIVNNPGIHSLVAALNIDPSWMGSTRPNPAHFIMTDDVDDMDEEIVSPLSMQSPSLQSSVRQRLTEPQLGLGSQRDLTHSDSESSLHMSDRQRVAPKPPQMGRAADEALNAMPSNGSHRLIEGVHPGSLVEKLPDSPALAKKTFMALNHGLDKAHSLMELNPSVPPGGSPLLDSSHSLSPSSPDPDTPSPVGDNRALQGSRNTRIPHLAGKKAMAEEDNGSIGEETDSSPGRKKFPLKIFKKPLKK
UniProt Q99J21: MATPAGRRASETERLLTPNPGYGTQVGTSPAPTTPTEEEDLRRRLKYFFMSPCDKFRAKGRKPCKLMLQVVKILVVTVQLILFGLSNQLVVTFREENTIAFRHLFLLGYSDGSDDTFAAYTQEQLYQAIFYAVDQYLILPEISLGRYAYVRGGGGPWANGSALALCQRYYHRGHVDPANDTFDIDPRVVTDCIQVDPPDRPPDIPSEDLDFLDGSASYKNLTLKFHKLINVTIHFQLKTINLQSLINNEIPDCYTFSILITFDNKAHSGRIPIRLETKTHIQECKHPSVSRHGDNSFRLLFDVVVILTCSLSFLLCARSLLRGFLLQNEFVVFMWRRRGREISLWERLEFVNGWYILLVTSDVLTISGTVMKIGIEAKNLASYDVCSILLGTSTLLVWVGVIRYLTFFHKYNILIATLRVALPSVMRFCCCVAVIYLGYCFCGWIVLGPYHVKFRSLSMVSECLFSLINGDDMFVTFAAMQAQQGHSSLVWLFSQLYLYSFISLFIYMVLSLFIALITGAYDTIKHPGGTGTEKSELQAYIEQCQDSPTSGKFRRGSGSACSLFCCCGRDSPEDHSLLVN

For this experiment, the target named is STIM1 (mouse (endogenous in NSC-34)) (UniProt P70302). Put plainly: co-IP; lysates (500 ug) of differentiated NSC-34 cells; immunoprecipitated with anti-STIM1 or anti-TRPML1, blotted with anti-TRPML1 or anti-STIM1 respectively; lysis buffer 50 mM HEPES, 100 mM NaCl, 1.5 mM MgCl2, 0.2% Nonidet P-40.

No constants are given. Whether binding was seen depends on the method and setting. In cells and extracts the contact can be indirect. Some results given as binding are weak or reduced against the parent protein; the word gives no strength.

For the substance “Mucolipin TRP channel 1 (TRPML1) (from UniProt Q99J21 1-580)”, the binding result is given as “binds”.
